# Data taken from PubChem BioAssay AID1347426 (Functional Genomics Laboratory (NCATS/FGL), 2020).
# In all, about 31,000 sequences went through this assay and about 1,400 (4.5%) were called active.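 Rule for the calls: active = median seed-adjusted z-score above 1 or below -1; inactive = the rest.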 This is one part of the list.
# Assay: Novel Modifiers of Survival Motor Neuron (SMN) Protein: Gene Identification via Genome-wide siRNA Screen;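 note: luminescence tracks full-length SMN protein made from the SMN2 reporter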
# Conditions: HEK293T SMN2-luciferase reporter, siRNA knockdown, 72 h; actives lie on both sides
# Outline: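 Luciferase signal, proportional to full-length SMN made from an SMN2 cDNA reporter in stable HEK293T cells, was read 72 h after siRNA reverse transfection. Values were expressed as MAD scores after non-targeting-control normalization and log10 conversion; seed analysis flagged off-targets.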
row,Sequence,median seed-adjusted z-score
1,GAAUAGAUCCUCUAAGUAUTT against MTMR9,inactive: 0.133
2,CGUUAUGCCUGGUCUCCUATT against SPPL3,inactive: 0.652
3,GAAGGAGAUUGGGCGGAUUTT against ETFB,inactive: 0.0669
4,GGCUCAAUGUGGAGCGUGUTT against AGAP3,inactive: 0.554
5,GUAGCUCAUUUGUAAGGAATT against ZNF578,inactive: -0.808
6,CUUCCUCUAUGACAACUGATT against NRXN1,inactive: 0.433
7,GACUCUACAUGAAACUCCATT against GATA6,inactive: 0.546
8,AGACAAAUCUGAUCUUCUUTT against GADL1,inactive: 0
9,GUGGUAUUCUGACUGCUAATT against KRT9,inactive: 0.545
10,AGGAAGAAUUUAAUCCUGATT against CYP26A1,inactive: 0.0569
11,GGGAAAAAGUUCUUGCGUATT against USP12,inactive: 0.121
12,CAAGCUAACUGAGAAGCAATT against AHCY,inactive: -0.189
13,GCGGAUUUCUUCUUAGUCATT against SLC17A3,inactive: -0.296
14,CAGGAUACUUCAUUAUUCATT against AMPH,inactive: -0.725
15,GGAAGAAUGUGCUUGGUCATT against PFKM,inactive: -0.362
16,CCGUUAGACCAGAACGGAATT against MGA,inactive: 0.0136
17,GCAUCACCCAAGUAGUUAUTT against SFXN2,inactive: 0.365
18,GUAUGUCGCAGUAAACAAATT against DYNLL2,inactive: -0.201
19,GCUUAUAGUUACUAUCAUUTT against CRLS1,inactive: 0.555
20,GUAUCGAUAUUAGAGAAGATT against HESX1,inactive: 0.3
21,CCUUCAACCUUAUGAGGUUTT against ZNF404,inactive: 0.574
22,CGGUGAUGUUUGUAGCCUATT against TACR2,inactive: 0.201
23,UCAUAUUCAGCAGAAUGAATT against TIMM9,inactive: -0.371
24,CCACUUCUCGGAAAACCCATT against SLC10A3,inactive: -0.25
25,GCUUGUCCCGAGAUGUUUATT against RET,inactive: -0.931
26,GUACUGUGAUAAGAUGUUUTT against PLAGL2,inactive: 0.0744
27,GAUCAAUGGUUAUCGAAUUTT against COL14A1,inactive: 0.19

# 2 entries drawn at random from the list so far:
row,Sequence,median seed-adjusted z-score
25,GCUUGUCCCGAGAUGUUUATT against RET,inactive: -0.931
1,GAAUAGAUCCUCUAAGUAUTT against MTMR9,inactive: 0.133

# (further entries)

row,Sequence,median seed-adjusted z-score
1,GGUCGAAUUUUGGGUAUUATT against CBLB,inactive: 0
2,GAAUUUCCGUGUGGAUGUATT against POLR1C,inactive: -0.0299
3,CCAUGAACAUCUUUGUCUATT against BCAT2,inactive: 0.0438
4,CUGUCAACCUUGAAGUUCATT against MORC1,inactive: -0.719
5,CAACAGACCUACGAGCAAATT against BANK1,inactive: 0.962
6,GCUGGAAUCUAACAAUAGATT against ROCK2,inactive: -0.149
7,CGUCUUCAGCUGUUUCGCATT against SOD3,inactive: -0.0691
8,GACAUCCCGUUGUACCUGATT against COX7A1,inactive: -0.47
9,GCAUUUAUGGGAAUGCUGATT against PTGR1,inactive: 0
10,GCUCAACAUCUGUAGAUCATT against ITSN1,inactive: 0.00218
11,AGAGCAUAUUGAUGAGAGATT against MTHFD2,inactive: -0.146
12,CAUCCACACUGCAAUGAUATT against PILRB,inactive: 0.0351
13,GAAGUAAUCUGCACAGGGATT against LRRC52,inactive: 0.118
14,CCGCGGAACUGUUUGUGGATT against POLE4,inactive: -0.0404
15,CACUGUCAGUUGCAAUAUUTT against FGB,inactive: 0.481
16,GCAUCUAUACAGUCAAGGATT against EPDR1,inactive: 0.369
17,GCAGUGUGGUCAGUACCUUTT against RSAD1,inactive: -0.269
18,AGGCUGUUGUCGUCACAAATT against PRPS2,inactive: 0.389
19,GGUUAGAAGAGGUGUCUAATT against NUMB,inactive: -0.599
20,GGACACUACAAUAAGUAUATT against ATP6V1G3,inactive: 0.489
21,GUAUAGGUGAUAAUCGAGATT against LANCL1,inactive: 0
22,CGAAAACGAUUCCCUCUAATT against SOX30,inactive: -0.167
23,UUAUGUUUAUGGAAUGAAATT against SLC6A18,inactive: 0.148
24,AAGACCACAUGAUCCGUAATT against SCNN1B,inactive: 0.585
25,GAACUUCCCUUAAGAGUCATT against MUC4,inactive: 0.128
26,GGGUCACAGGUUGGAAAGATT against ACBD4,inactive: -0.363
27,GGAUUAUCUGCACUCCGAATT against STK25,inactive: -0.0703
